PubChem BioAssay AID504764 – Drosophila RNAi Screening Center, 2011

- Purpose: 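Knock-downs that raise or lower a Notch target reporter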 (primary screen)
- Cells: Drosophila Kc167 cells
- Knock-down reagent: long dsRNA against Drosophila genes
- Duration: about 5 days (4 days dsRNA, then 24 h after transfection)
- Conditions: transfection of constitutively active membrane-tethered Notch lacking the extracellular domain, read 24 h later
- Measured: 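Firefly luciferase from an E(spl)m3 reporter with active Notch, plus control-promoter and uninduced reporter wells for normalisation; unnormalised counts, duplicate wells a and b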
- Scale: induced reporter light, run 1, well a and induced reporter light, run 1, well b: higher = more light from the Notch target reporter with active Notch; control promoter light, run 1, well a and control promoter light, run 1, well b: higher = more light from the viral control promoter (cell number, transfection, viability); uninduced reporter light, run 1, well a: higher = more light from the Notch target reporter without active Notch
- Active means: 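Hit if the duplicate-averaged log2 ratio of induced to control-promoter light gives a plate-wise z beyond ±2, or induced to uninduced beyond ±1.8; weak-control or discordant-duplicate wells dropped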
- Calls: active = modifier hit (raised or lowered Notch signal); inactive = not a hit
The deposit covers about 22,000 reagents; this is a random part of those with a known target gene and a result. In the full data, 403 (1.9%) got an active call. 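Unnormalised raw counts per well; ratio z-scores behind the hit calls and whether each hit raises or lowers signal are not deposited.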 Entries without a mark were called inactive. Not given: the amount of reagent.

no.	target	dsRNA	induced reporter light, run 1, well a	induced reporter light, run 1, well b	control promoter light, run 1, well a	control promoter light, run 1, well b	uninduced reporter light, run 1, well a
1	GC1 (GeneID 41448)	DRSC15322	66875	59885	83215	65720	4530
2	CG10674 (GeneID 38602)	DRSC09775	2.05e5	1.88e5	1.79e5	2.69e5	8360
3	Sirt6 (GeneID 41254)	DRSC16010	21865	28005	35715	35585	1760
4	CG5160 (GeneID 34015)	DRSC02821	60700	55520	59305	48745	3330
5	a5 (GeneID 33317)	DRSC00798	94210	88660	1.05e5	77840	7655
6	CG18213 (GeneID 42055)	DRSC15316	1.88e5	2.44e5	2.10e5	2.15e5	15215
7	schlank (GeneID 50392)	DRSC18102	1.17e5	1.12e5	2.20e5	2.26e5	9840
8	schlank (GeneID 50392)	DRSC18313	1.06e5	1.21e5	2.22e5	1.83e5	8155
9	stet (GeneID 38169)	DRSC08246	1.14e5	1.62e5	1.50e5	1.57e5	6370
10	stet (GeneID 38169)	DRSC08283	96230	1.27e5	1.59e5	1.81e5	6042
11	CG34461 (GeneID 5740547)	DRSC10767	3.20e5	2.25e5	3.10e5	2.74e5	16078
12	CG32121 (GeneID 317867)	DRSC09265	2.05e5	1.66e5	2.44e5	2.59e5	20715
13	CG15468 (GeneID 31426)	DRSC18051	75875 (active)	95900	1.06e5	1.21e5	6760
14	CG7164 (GeneID 34061)	DRSC03018	1.26e5	2.15e5	1.34e5	1.57e5	22010
15	Notum (GeneID 39751)	DRSC09959	2.30e5	1.60e5	2.12e5	2.45e5	7605
16	CG8036 (GeneID 41027)	DRSC16366	87900	74255	65625	62840	5720
17	Diedel3 (GeneID 50358)	DRSC19544	60350	80595	99010	90765	10890
18	CG11563 (GeneID 43735)	DRSC14327	1.40e5	1.37e5	2.28e5	2.06e5	8840
19	Grip71 (GeneID 35130)	DRSC02042	63740	46265	90240	90045	5000
20	Trp1 (GeneID 34333)	DRSC03465	80550	1.22e5	66400	79850	14670
21	Mlc-c (GeneID 31474)	DRSC18683	1.52e5	1.41e5	2.01e5	1.66e5	10720
22	Pgam5-2 (GeneID 37899)	DRSC04278	1.78e5	1.49e5	1.62e5	1.82e5	11750
23	Eglp1 (GeneID 37736)	DRSC04502	93870	96300	67025	70740	6575
24	RpL40 (GeneID 33629)	DRSC00782	77600	84450	92620	1.00e5	5290
25	pan (GeneID 43769)	DRSC17176	1.18e5	1.42e5	1.50e5	1.79e5	11515
26	Smyd4-1 (GeneID 35985)	DRSC06785	1.67e5	1.57e5	1.95e5	1.48e5	17180
27	CG3088 (GeneID 39115)	DRSC10352	1.06e5	1.15e5	85240	49260	9300
28	CG6168 (GeneID 39273)	DRSC10596	1.28e5	1.30e5	1.84e5	1.30e5	7055
29	Dph2 (GeneID 41802)	DRSC16222	1.28e5	1.04e5	75010	67145	9730
30	CG13575 (GeneID 37883)	DRSC04211	1.66e5	1.54e5	1.70e5	1.62e5	12990
31	Brms1 (GeneID 32243)	DRSC19896	1.60e5	1.36e5	2.69e5	1.91e5	9565
32	Torsin (GeneID 31399)	DRSC18570	2.44e5	1.94e5	3.63e5	3.90e5	13505
33	EndoB (GeneID 37218)	DRSC07345	1.11e5	1.06e5	1.07e5	96700	8670
34	Prosbeta1 (GeneID 46058)	DRSC07159	30345	26895	38150	38965	2360
35	CG5342 (GeneID 41389)	DRSC15776	87005	94390	99515	66675	7325
36	CG12391 (GeneID 36170)	DRSC06147	1.80e5	1.97e5	1.60e5	1.55e5	13415
37	CG12689 (GeneID 31676)	DRSC17879	1.43e5	1.60e5	2.47e5	2.98e5	10645

Records above whose target name starts with P or p (3):
target	dsRNA	induced reporter light, run 1, well a	induced reporter light, run 1, well b	control promoter light, run 1, well a	control promoter light, run 1, well b	uninduced reporter light, run 1, well a
Pgam5-2 (GeneID 37899)	DRSC04278	1.78e5	1.49e5	1.62e5	1.82e5	11750
pan (GeneID 43769)	DRSC17176	1.18e5	1.42e5	1.50e5	1.79e5	11515
Prosbeta1 (GeneID 46058)	DRSC07159	30345	26895	38150	38965	2360

Next records:
no.	target	dsRNA	induced reporter light, run 1, well a	induced reporter light, run 1, well b	control promoter light, run 1, well a	control promoter light, run 1, well b	uninduced reporter light, run 1, well a
38	CG9702 (GeneID 43634)	DRSC16540	1.15e5	1.04e5	1.71e5	1.92e5	10485
39	put (GeneID 41772)	DRSC17039	1.01e5	1.13e5	80540	93995	9680
40	CG17361 (GeneID 39548)	DRSC10266	2.78e5	1.95e5	78955	7500	20630
41	CG5002 (GeneID 37025)	DRSC06911	93775	94785	2.29e5	2.25e5	9110
42	CG5071 (GeneID 43090)	DRSC15710	1.85e5	1.45e5	1.69e5	1.54e5	11825
43	Cnx14D (GeneID 32620)	DRSC20214	1.02e5	95140	1.17e5	1.10e5	12185
44	yuri (GeneID 34894)	DRSC01453	76555	63395	88155	75735	8025
45	yuri (GeneID 34894)	DRSC01454	26795	27310	27450	31345	5010
46	yuri (GeneID 34894)	DRSC01943	1.16e5	1.24e5	1.53e5	1.66e5	10340
47	yuri (GeneID 34894)	DRSC01972	1.75e5	1.74e5	1.55e5	1.57e5	15595
48	COX6CL (GeneID 318868)	DRSC00895	1.38e5	1.52e5	1.89e5	2.36e5	11335
49	GABA-B-R3 (GeneID 33248)	DRSC00561	1.27e5	1.19e5	99965	55840	9295
50	CG11696 (GeneID 32104)	DRSC19417	1.43e5	1.08e5	1.61e5	1.70e5	12290
51	CG8405 (GeneID 36772)	DRSC05599	1.19e5	1.40e5	1.67e5	1.52e5	11465
52	CG8405 (GeneID 36772)	DRSC07166	89490	1.00e5	1.50e5	1.15e5	6505
53	for (GeneID 44817)	DRSC00195	33920	28885	21210	20788	4790
54	for (GeneID 44817)	DRSC00818	76160	89870	72290	71340	7235
55	CG15546 (GeneID 43659)	DRSC15084	1.45e5	1.64e5	2.23e5	2.06e5	12820
56	Jon65Aiii (GeneID 38683)	DRSC10649	1.41e5	1.15e5	75155	27530	13205
57	CG1827 (GeneID 35989)	DRSC06719	1.94e5	1.59e5	1.38e5	1.25e5	13955
58	CG42712 (retired record) (GeneID 10178815)	DRSC01038	1.23e5	1.30e5	1.20e5	1.31e5	9650
59	dome (GeneID 32976)	DRSC19583	96410	93525	68840	44875	6460
60	DCX-EMAP (GeneID 39617)	DRSC10012	1.32e5	1.39e5	2.12e5	1.45e5	8520
61	DCX-EMAP (GeneID 39617)	DRSC10013	33505	25820	30835	39410	6388
62	CG30440 (GeneID 35496)	DRSC04775	1.24e5	1.43e5	1.55e5	1.91e5	8655
63	CG30440 (GeneID 35496)	DRSC04845	1.78e5	1.91e5	1.71e5	1.74e5	12628
64	CG30440 (GeneID 35496)	DRSC04855	2.24e5	1.91e5	1.76e5	1.88e5	15320
